Experimental data published in the supplement of paper PMC4604168 (melanoma cell lines).
Some of the results follow. Many values rest on one well or one pass, so single values are uncertain.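 The apoptosis fraction was the count of cleaved-PARP antibody-stained nuclei relative to all DNA-stained nuclei, imaged in 1,536-well plates. Screening doses were set so most cells survived, and baseline and induced cleaved-PARP levels vary greatly across cell lines.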

How the values were obtained:
Experiment in all cases: cleaved PARP positive nuclei fraction relative to DMSO control; melanoma cells; higher = more apoptosis
Conditions in all cases: library dose: low library concentration; 72 h
MZ2-MEL = test system: MZ2-MEL
MeWo = test system: MeWo
RPMI7951 = test system: RPMI7951
RVH-421 = test system: RVH-421
SkMel28 = test system: SkMel28
SkMel2 = test system: SkMel2
SkMel30 = test system: SkMel30
SkMel5 = test system: SkMel5
UACC257 = test system: UACC257
UACC62 = test system: UACC62

SMILES | cleaved PARP positive nuclei fraction (MZ2-MEL) [%] | cleaved PARP positive nuclei fraction (MeWo) [%] | cleaved PARP positive nuclei fraction (RPMI7951) [%] | cleaved PARP positive nuclei fraction (RVH-421) [%] | cleaved PARP positive nuclei fraction (SkMel28) [%] | cleaved PARP positive nuclei fraction (SkMel2) [%] | cleaved PARP positive nuclei fraction (SkMel30) [%] | cleaved PARP positive nuclei fraction (SkMel5) [%] | cleaved PARP positive nuclei fraction (UACC257) [%] | cleaved PARP positive nuclei fraction (UACC62) [%]
Cn1c(=O)n(-c2ccc(C(C)(C)C#N)cc2)c2c3cc(-c4cnc5ccccc5c4)ccc3ncc21 + Cc1cc(SCc2sc(-c3ccc(C(F)(F)F)c(F)c3)nc2C)ccc1OCC(=O)O [GW0742] (first compound 0.004 µM, partner dose 2 µM) | 181 | 104 | 238 | 42.6 | 150 | 57.5 | 37.8 | 72.3 | 186 | 114
C[As](C)SC[C@H](NC(=O)CC[C@H](N)C(=O)O)C(=O)NCC(=O)O [Darinaparsin] + NCC(=O)Nc1ccc(-n2nc(C(F)(F)F)cc2-c2ccc3c(ccc4ccccc43)c2)cc1 [OSU03012] (first compound 0.4 µM, partner dose 1 µM) | 56.5 | 80.8 | 52.2 | 27.8 | 113 | 76 | 147 | 110 | 203 | 77.4
CCCS(=O)(=O)Nc1ccc(F)c(C(=O)c2c[nH]c3ncc(Cl)cc23)c1F + Cc1cc(SCc2sc(-c3ccc(C(F)(F)F)c(F)c3)nc2C)ccc1OCC(=O)O [GW0742] (first compound 0.08 µM, partner dose 2 µM) | 88 | 80.5 | 196 | 58.4 | 203 | 87.1 | 32.3 | 64.9 | 187 | 267
Cn1cc(C2=C(c3cn(C4CCN(Cc5ccccn5)CC4)c4ccccc34)C(=O)NC2=O)c2ccccc21 [Enzastaurin] + NC(=O)Nc1cc(-c2cccc(F)c2)sc1C(=O)N[C@H]1CCCNC1 [AZD7762] (first compound 0.8 µM, partner dose 0.02 µM) | 56.6 | 133 | 89.5 | 37.2 | 55.8 | 125 | 110 | 120 | 67.1 | 240
N.N.[Cl][Pt][Cl] [cisplatin] + N#Cc1c(O)c2c(-c3ccc(-c4ccccc4O)cc3)csc2[nH]c1=O [A769662] (first compound 1.6 µM, partner dose 2 µM) | 208 | 145 | 75.4 | 119 | 168 | 113 | 281 | 158 | 52.1 | 80.4
NC1(c2ccc(-c3nc4ccn5c(=O)[nH]nc5c4cc3-c3ccccc3)cc2)CCC1 + Cc1cc(SCc2sc(-c3ccc(C(F)(F)F)c(F)c3)nc2C)ccc1OCC(=O)O [GW0742] (first compound 0.4 µM, partner dose 2 µM) | 131 | 120 | 82.9 | 115 | 147 | 35.1 | 18.8 | 160 | 220 | 208
CN1CCN(c2ccc3nc(-c4c(N)c5c(F)cccc5[nH]c4=O)[nH]c3c2)CC1 [Dovitinib] + O=C(Oc1ccc([N+](=O)[O-])cc1)N1CCC(C(O)(c2ccc3c(c2)OCO3)c2ccc3c(c2)OCO3)CC1 [JZL184] (first compound 0.1 µM, partner dose 1 µM) | 73.8 | 52.7 | 197 | 93.1 | 147 | 158 | 140 | 98.1 | 440 | 121
Cn1cc(C2=C(c3cn(C4CCN(Cc5ccccn5)CC4)c4ccccc34)C(=O)NC2=O)c2ccccc21 [Enzastaurin] + O=C(Nc1cccc(Cl)c1)Nc1ncc(CCNc2ncnc3ccsc23)s1 [SNS314] (first compound 0.8 µM, partner dose 0.0008 µM) | 84.2 | 61.2 | 190 | 152 | 270 | 149 | 116 | 32.9 | 127 | 26.4
C[As](C)SC[C@H](NC(=O)CC[C@H](N)C(=O)O)C(=O)NCC(=O)O [Darinaparsin] + CO[C@@H]1[C@H](N(C)C(=O)c2ccccc2)C[C@H]2O[C@]1(C)n1c3ccccc3c3c4c(c5c6ccccc6n2c5c31)C(=O)NC4 [Midostaurin] (first compound 0.4 µM, partner dose 0.08 µM) | 99.9 | 79.7 | 108 | 74.1 | 76.6 | 210 | 160 | 70.3 | 97.9 | 31.2
Cn1cnc2c(F)c(Nc3ccc(Br)cc3Cl)c(C(=O)NOCCO)cc21 [selumetinib] + O=C(Oc1ccc([N+](=O)[O-])cc1)N1CCC(C(O)(c2ccc3c(c2)OCO3)c2ccc3c(c2)OCO3)CC1 [JZL184] (first compound 0.015 µM, partner dose 1 µM) | 247 | 179 | 46.6 | 84 | 126 | 60.4 | 102 | 158 | 65.4 | 1050
CS(=O)(=O)CCNCc1ccc(-c2ccc3ncnc(Nc4ccc(OCc5cccc(F)c5)c(Cl)c4)c3c2)o1 [lapatinib] + Cc1cc(SCc2sc(-c3ccc(C(F)(F)F)c(F)c3)nc2C)ccc1OCC(=O)O [GW0742] (first compound 0.8 µM, partner dose 2 µM) | 161 | 155 | 119 | 108 | 126 | 93 | 23.2 | 142 | 193 | 178
CCCCCCCCc1ccc(CCC(N)(CO)CO)cc1 [fingolimod] + Cc1cc(SCc2sc(-c3ccc(C(F)(F)F)c(F)c3)nc2C)ccc1OCC(=O)O [GW0742] (first compound 2 µM, partner dose 2 µM) | 436 | 158 | 144 | 1070 | 34.5 | 248 | 95.4 | 65.7 | 77.4 | 77.8
CCCCCCCCc1ccc(CCC(N)(CO)CO)cc1 [fingolimod] + O=C(Oc1ccc([N+](=O)[O-])cc1)N1CCC(C(O)(c2ccc3c(c2)OCO3)c2ccc3c(c2)OCO3)CC1 [JZL184] (first compound 2 µM, partner dose 1 µM) | 123 | 130 | 69.9 | 140 | 153 | 87 | 31.9 | 83.7 | 182 | 228
N.N.[Cl][Pt][Cl] [cisplatin] + COc1ccc(-c2ccc3c(N4CCOCC4)nc(N4C[C@@H](C)O[C@@H](C)C4)nc3n2)cc1CO [KU0063794] (first compound 1.6 µM, partner dose 0.02 µM) | 121 | 264 | 69.5 | 104 | 142 | 130 | 131 | 80.6 | 181 | 63.4
C=C(c1ccc(C(=O)O)cc1)c1cc2c(cc1C)C(C)(C)CCC2(C)C [Bexarotene] + O=C(Oc1ccc([N+](=O)[O-])cc1)N1CCC(C(O)(c2ccc3c(c2)OCO3)c2ccc3c(c2)OCO3)CC1 [JZL184] (first compound 2 µM, partner dose 1 µM) | 129 | 20.8 | 32.1 | 71.8 | 233 | 77.9 | 193 | 77.3 | 69.7 | 114
Cn1cc(C2=C(c3cn(C4CCN(Cc5ccccn5)CC4)c4ccccc34)C(=O)NC2=O)c2ccccc21 [Enzastaurin] + C[C@@H]1CCN(C(=O)CC#N)C[C@@H]1N(C)c1ncnc2[nH]ccc12 [CP690550] (first compound 0.8 µM, partner dose 1 µM) | 143 | 29 | 116 | 57.3 | 115 | 217 | 116 | 136 | 96.4 | 136
C=CCNC1=C2C[C@@H](C)C[C@H](OC)[C@H](O)[C@@H](C)/C=C(\C)[C@H](OC(N)=O)[C@@H](OC)/C=C\C=C(/C)C(=O)NC(=CC1=O)C2=O [Tanespimycin] + C/C(O)=C(\C#N)C(=O)Nc1cc(Br)ccc1Br [LFM-A13] (first compound 0.002 µM, partner dose 2 µM) | 81.1 | 60.8 | 180 | 114 | 101 | 91.2 | 73.8 | 147 | 109 | 73.6
N.N.[Cl][Pt][Cl] [cisplatin] + COc1ccc(COc2ccc(Cc3cnc(N)nc3N)cc2OC)cc1 [GW2580] (first compound 1.6 µM, partner dose 1 µM) | 81 | 44.5 | 129 | 204 | 37.5 | 140 | 33.5 | 67.4 | 57.3 | 82.3
CN(c1ncccc1CNc1nc(Nc2ccc3c(c2)CC(=O)N3)ncc1C(F)(F)F)S(C)(=O)=O + Cc1cc(SCc2sc(-c3ccc(C(F)(F)F)c(F)c3)nc2C)ccc1OCC(=O)O [GW0742] (first compound 0.08 µM, partner dose 2 µM) | 130 | 63.2 | 218 | 127 | 97.9 | 69.2 | 87.5 | 96.9 | 23.2 | 161
Nc1nc(F)nc2c1ncn2[C@@H]1O[C@H](CO)[C@@H](O)[C@@H]1O [fludarabine] + Cc1cc(SCc2sc(-c3ccc(C(F)(F)F)c(F)c3)nc2C)ccc1OCC(=O)O [GW0742] (first compound 0.2 µM, partner dose 2 µM) | 109 | 1570 | 116 | 49.4 | 170 | 749 | 78.3 | 933 | 147 | 127
CCN(CC)CCNC(=O)c1c(C)[nH]c(/C=C2\C(=O)Nc3ccc(F)cc32)c1C [sunitinib] + O=C(Oc1ccc([N+](=O)[O-])cc1)N1CCC(C(O)(c2ccc3c(c2)OCO3)c2ccc3c(c2)OCO3)CC1 [JZL184] (first compound 0.4 µM, partner dose 1 µM) | 142 | 69.2 | 65.1 | 56.1 | 117 | 67.3 | 97.9 | 69.7 | 135 | 105

Quoted from the listing:
Entry of CCCCCCCCc1ccc(CCC(N)(CO)CO)cc1 [fingolimod] + Cc1cc(SCc2sc(-c3ccc(C(F)(F)F)c(F)c3)nc2C)ccc1OCC(=O)O [GW0742] (first compound 2 µM, partner dose 2 µM) under cleaved PARP positive nuclei fraction (MZ2-MEL) [%]: 436
Entry of Nc1nc(F)nc2c1ncn2[C@@H]1O[C@H](CO)[C@@H](O)[C@@H]1O [fludarabine] + Cc1cc(SCc2sc(-c3ccc(C(F)(F)F)c(F)c3)nc2C)ccc1OCC(=O)O [GW0742] (first compound 0.2 µM, partner dose 2 µM) under cleaved PARP positive nuclei fraction (RVH-421) [%]: 49.4
